Source: paper PMC4980451
No constants are given. Whether binding was seen depends on the method and setting. In cells and extracts the contact can be indirect. Some results given as binding are weak or reduced against the parent protein; the word gives no strength.

Protein sequences, listed by entry. Tags and fused reporters are not part of them.
UniProt O08586: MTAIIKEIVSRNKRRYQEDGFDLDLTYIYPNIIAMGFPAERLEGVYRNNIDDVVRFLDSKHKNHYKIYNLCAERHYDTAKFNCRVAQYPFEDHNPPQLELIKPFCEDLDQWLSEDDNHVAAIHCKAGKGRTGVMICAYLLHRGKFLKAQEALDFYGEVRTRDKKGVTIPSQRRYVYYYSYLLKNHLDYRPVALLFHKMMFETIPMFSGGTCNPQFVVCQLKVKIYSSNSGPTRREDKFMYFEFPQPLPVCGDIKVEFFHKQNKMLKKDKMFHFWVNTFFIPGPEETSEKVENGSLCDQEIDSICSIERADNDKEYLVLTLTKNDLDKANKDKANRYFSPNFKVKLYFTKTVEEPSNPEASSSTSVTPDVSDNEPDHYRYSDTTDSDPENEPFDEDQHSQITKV

Target: Pten (endogenous, Pten+/+ MEFs) (mouse (endogenous in MEFs)) (UniProt O08586)
Experiment: co-IP; endogenous proteins; cell lysates (HeLa; Pten+/+ MEFs; synchronized samples 6-10 h after release from double thymidine block) immunoprecipitated with an anti-PTEN monoclonal antibody, EG5 detected by Western blotting

binding: binds
B1: EG5 (endogenous, Pten+/+ MEFs) (protein, UniProt Q6P9P6 1-1052)
chain: MASQPSSLKKKEEKGRNIQVVVRCRPFNLAERKANAHSVVECDHARKEVSVRTAGLTDKTSKKTYTFDMVFGASTKQIDVYRSVVCPILDEVIMGYNCTIFAYGQTGTGKTFTMEGERSPNEVYTWEEDPLAGIIPRTLHQIFEKLTDNGTEFSVKVSLLEIYNEELFDLLSPSSDVSERLQMFDDPRNKRGVIIKGLEEITVHNKDEVYQILEKGAAKRTTAATLMNAYSSRSHSVFSVTIHMKETTIDGEELVKIGKLNLVDLAGSENIGRSGAVDKRAREAGNINQSLLTLGRVITALVERTPHIPYRESKLTRILQDSLGGRTRTSIIATISPASFNLEETLSTLEYAHRAKNIMNKPEVNQKLTKKALIKEYTEEIERLKRDLAAAREKNGVYISEESFRAMNGKVTVQEEQIVELVEKIAVLEEELSKATELFMDSKNELDQCKSDLQTKTQELETTQKHLQETKLQLVKEEYVSSALERTEKTLHDTASKLLNTVKETTRAVSGLHSKLDRKRAIDEHNAEAQESFGKNLNSLFNNMEELIKDGSAKQKAMLDVHKTLFGNLMSSSVSALDTITTTALESLVSIPENVSARVSQISDMILEEQSLAAQSKSVLQGLIDELVTDLFTSLKTIVAPSVVSILNINKQLQHIFRASSTVAEKVEDQKREIDSFLSILCNNLHELRENTVSSLVESQKLCGDLTEDLKTIKETHSQELCQLSSSWAERFCALEKKYENIQKPLNSIQENTELRSTDIINKTTVHSKKILAESDGLLQELRHFNQEGTQLVEESVGHCSSLNSNLETVSQEITQKCGTLNTSTVHFSDQWASCLSKRKEELENLMEFVNGCCKASSSEITKKVREQSAAVANQHSSFVAQMTSDEESCKAGSLELDKTIKTGLTKLNCFLKQDLKLDIPTGMTPERKKYLYPTTLVRTEPREQLLDQLQKKQPPMMLNSSEASKETSQDMDEEREALEQCTEELVSPETTEHPSADCSSSRGLPFFQRKKPHGKDKENRGLNPVEKYKVEEASDLSISKSRLPLHTSINL
